# Measurements published in paper PMC7897482.
# Results are given in words; binding and its absence hold for the method and conditions named. Binding seen in cells or lysates may run through a third protein. These calls come from enrichment with a bait or labelling near it, and not all partners need be listed. Where a sequence is shown, tags or fusion partners need not be part of it.
# T1: SmD3::HA (transgenic UAS-SmD3::3xHA) (Drosophila melanogaster) (UniProt O44437)
# T1 sequence: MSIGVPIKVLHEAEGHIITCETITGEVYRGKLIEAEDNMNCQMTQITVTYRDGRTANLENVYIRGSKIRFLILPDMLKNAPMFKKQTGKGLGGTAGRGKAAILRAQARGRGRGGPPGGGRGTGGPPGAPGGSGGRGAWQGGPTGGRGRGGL
# T2: Myc::Ecd^wt (Ecdysoneless, wild type) (Drosophila melanogaster) (UniProt Q9W032)
# T2 sequence: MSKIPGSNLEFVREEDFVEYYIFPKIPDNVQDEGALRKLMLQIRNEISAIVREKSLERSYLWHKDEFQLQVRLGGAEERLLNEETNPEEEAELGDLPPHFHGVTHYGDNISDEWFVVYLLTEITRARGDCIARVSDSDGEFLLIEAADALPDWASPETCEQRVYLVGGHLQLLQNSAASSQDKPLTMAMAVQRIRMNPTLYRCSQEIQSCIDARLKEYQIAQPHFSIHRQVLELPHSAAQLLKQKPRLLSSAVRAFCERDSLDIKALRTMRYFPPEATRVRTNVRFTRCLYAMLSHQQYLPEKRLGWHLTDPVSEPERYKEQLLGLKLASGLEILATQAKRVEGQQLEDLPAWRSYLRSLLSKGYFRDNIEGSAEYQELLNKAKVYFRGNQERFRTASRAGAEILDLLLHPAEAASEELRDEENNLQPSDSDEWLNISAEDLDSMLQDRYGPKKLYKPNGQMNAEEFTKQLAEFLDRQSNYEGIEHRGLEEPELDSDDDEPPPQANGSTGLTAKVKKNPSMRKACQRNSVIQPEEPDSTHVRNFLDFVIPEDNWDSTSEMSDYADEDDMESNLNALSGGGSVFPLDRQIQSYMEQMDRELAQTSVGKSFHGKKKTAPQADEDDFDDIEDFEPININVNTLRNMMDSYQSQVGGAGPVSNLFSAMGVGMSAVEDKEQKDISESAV
# Columns and labels:
# [1] = target: T1, SmD3::HA (transgenic UAS-SmD3::3xHA) (Drosophila melanogaster); experiment: affinity purification with mass spectrometry; SmD3::HA precipitated with an HA-specific antibody from lysates of wing imaginal discs (nub>mRFP, SmD3::HA), wild type or with ecd RNAi; LC-MS/MS; control: nub>mRFP discs
# [2] = target: T2, Myc::Ecd^wt (Ecdysoneless, wild type) (Drosophila melanogaster); experiment: affinity purification with mass spectrometry; Myc::Ecd^wt or Myc::Ecd^Δ34 precipitated with an anti-Myc antibody from Drosophila S2 cell lysates; LC-MS/MS, four biological replicates; control: S2 cells not expressing Myc::Ecd^wt
binding [1],binding [2],Binder
binds,–,"Holn1 (wing imaginal discs) (protein, UniProt Q9VKV5 1-319) MASKRKHQASQKVKEESFKKHTLDSDEEDSDDYEREYLNDSDIEGGEEGVAKVEDDVKVTPFNMKEELEEGHFDKDGHYHWNKETEAKDNWLDNIDWVKIGTQKNAFDPAKDEENSSDEEKNEPVGKAFNLSMNLMKMVEFMKPGETVKMTLQRLGKQRPVLTTLQRIKQKKAGIVDPKTQEISQLTELANEILSKTGNMDIYQDTYESIKAKIADLPGTSKPKVADDIDMYADDFETKELERSKTSSSDSSKPTTTTSEVTWEFKWSQDETDIQGPFSTEKMLKWSQENYFKNGVYVRKCGENTNFYTSNRIDFDLYL"
–,binds,"endogenous SmD3 (S2 cells) (protein, UniProt O44437 1-151) MSIGVPIKVLHEAEGHIITCETITGEVYRGKLIEAEDNMNCQMTQITVTYRDGRTANLENVYIRGSKIRFLILPDMLKNAPMFKKQTGKGLGGTAGRGKAAILRAQARGRGRGGPPGGGRGTGGPPGAPGGSGGRGAWQGGPTGGRGRGGL"
